Test results published in the supplement of paper PMC6078165.
Values are relative to the signal before dosing, not to a vehicle control; the signal also falls without drug.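 Fibroblast labels name human fibroblasts: mostly primary ones from tissues such as uterus (C12385, HUF), lung (H6013), bone (Hs27A), adrenal (HADF) and skin (WS1), plus mammary HMF and breast cancer-associated Hs343T. The cancer cells are basal-like or mesenchymal-like triple-negative breast cancer lines. The paper calls a changed response a hit when it shifts by more than 3x the replicate standard deviation. The tissue of the other fibroblasts is not given here.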

System: Hs578T
Assay: relative JC-1 red fluorescence (viability) vs pre-drug, coculture with fibroblast (fraction); higher = more viable cancer cells
Method: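 JC-1 labelled TNBC cells cocultured 1:1 (1,500 cells each) with CellTrace Violet stained primary or stromal fibroblasts in 384-well plates in FluoroBrite medium, treated with one of 42 anticancer drugs at 0.1, 1, 10 or 100 uM. JC-1 red fluorescence (mitochondrial integrity in cancer cells only) was read by plate reader every 8 h for 72 h. Values are normalised to each well's pre-drug value. The stock of one drug was tenfold lower, so its dose labels may be too high.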

O=C1c2c(O)ccc(O)c2C(=O)c2c(NCCNCCO)ccc(NCCNCCO)c21 [Mitoxantrone]
relative JC-1 red fluorescence
Settings | 8 h | 16 h | 24 h | 32 h | 40 h | 48 h | 56 h | 64 h | 72 h
0.1 µM | 0.867 | 0.7704 | 0.706 | 0.68 | 0.629 | 0.595 | 0.584 | 0.544 | 0.545
1 µM | 0.653 | 0.616 | 0.668 | 0.692 | 0.688 | 0.684 | 0.69 | 0.646 | 0.6332
10 µM | 0.706 | 0.824 | 0.867 | 0.804 | 0.733 | 0.637 | 0.535 | 0.49 | 0.413

relative JC-1 red fluorescence
Settings | 8 h | 16 h | 24 h | 32 h | 40 h | 48 h | 56 h | 64 h | 72 h
0.1 µM, coculture fibroblast: C12385 | 0.76926 | 0.693 | 0.6666 | 0.59 | 0.548 | 0.524 | 0.507 | 0.502 | 0.501
0.1 µM, coculture fibroblast: H6013 | 0.8424 | 0.774 | 0.717 | 0.69 | 0.666 | 0.652 | 0.629 | 0.619 | 0.594
0.1 µM, coculture fibroblast: H6019 | 0.722 | 0.625 | 0.599 | 0.528 | 0.498 | 0.481 | 0.462 | 0.453 | 0.438
0.1 µM, coculture fibroblast: H6076 | 0.835 | 0.772 | 0.759 | 0.772 | 0.758 | 0.774 | 0.7705 | 0.7919 | 0.8017
0.1 µM, coculture fibroblast: H6231 | 0.825 | 0.755 | 0.688 | 0.681 | 0.626 | 0.613 | 0.577 | 0.557 | 0.546
0.1 µM, coculture fibroblast: HADF | 0.83 | 0.759 | 0.6897 | 0.629 | 0.5909 | 0.553 | 0.527 | 0.511 | 0.474
0.1 µM, coculture fibroblast: HCFa | 0.8058 | 0.717 | 0.657 | 0.614 | 0.562 | 0.544 | 0.507 | 0.493 | 0.459
0.1 µM, coculture fibroblast: HCPF | 0.883 | 0.7844 | 0.7115 | 0.685 | 0.639 | 0.616 | 0.594 | 0.554 | 0.547
0.1 µM, coculture fibroblast: HHSteC | 0.847 | 0.792 | 0.7265 | 0.6894 | 0.6443 | 0.61669 | 0.598 | 0.583 | 0.548
0.1 µM, coculture fibroblast: HMF | 0.845 | 0.763 | 0.724 | 0.715 | 0.673 | 0.667 | 0.642 | 0.627 | 0.618
0.1 µM, coculture fibroblast: HPFa | 0.87 | 0.829 | 0.752 | 0.703 | 0.674 | 0.649 | 0.614 | 0.594 | 0.559
0.1 µM, coculture fibroblast: HUF | 0.81 | 0.739 | 0.711 | 0.615 | 0.563 | 0.541 | 0.51 | 0.512 | 0.509
0.1 µM, coculture fibroblast: Hs27A | 0.8288 | 0.793 | 0.778 | 0.758 | 0.729 | 0.7135 | 0.692 | 0.685 | 0.637
0.1 µM, coculture fibroblast: Hs343T | 0.834 | 0.759 | 0.693 | 0.704 | 0.6632 | 0.6537 | 0.626 | 0.621 | 0.622
0.1 µM, coculture fibroblast: WS1 | 0.77001 | 0.672 | 0.64 | 0.568 | 0.533 | 0.522 | 0.507 | 0.52 | 0.525
1 µM, coculture fibroblast: C12385 | 0.4879 | 0.402 | 0.428 | 0.383 | 0.364 | 0.353 | 0.343 | 0.342 | 0.338
1 µM, coculture fibroblast: H6013 | 0.593 | 0.592 | 0.594 | 0.593 | 0.6 | 0.61 | 0.601 | 0.588 | 0.553
1 µM, coculture fibroblast: H6019 | 0.5182 | 0.486 | 0.521 | 0.464 | 0.464 | 0.455 | 0.455 | 0.45 | 0.435
1 µM, coculture fibroblast: H6076 | 0.645 | 0.5753 | 0.562 | 0.557 | 0.54 | 0.535 | 0.514 | 0.496 | 0.487
1 µM, coculture fibroblast: H6231 | 0.628 | 0.497 | 0.554 | 0.573 | 0.5422 | 0.545 | 0.532 | 0.522 | 0.527
1 µM, coculture fibroblast: HADF | 0.53434 | 0.54 | 0.5485 | 0.559 | 0.587 | 0.578 | 0.581 | 0.583 | 0.539
1 µM, coculture fibroblast: HCFa | 0.57639 | 0.5777 | 0.5722 | 0.5784 | 0.573 | 0.5922 | 0.579 | 0.576 | 0.531
1 µM, coculture fibroblast: HCPF | 0.6159 | 0.561 | 0.591 | 0.607 | 0.58 | 0.582 | 0.6131 | 0.581 | 0.591
1 µM, coculture fibroblast: HHSteC | 0.598 | 0.586 | 0.597 | 0.604 | 0.603 | 0.6 | 0.577 | 0.5724 | 0.5351
1 µM, coculture fibroblast: HMF | 0.601 | 0.534 | 0.538 | 0.542 | 0.52 | 0.507 | 0.505 | 0.486 | 0.477
1 µM, coculture fibroblast: HPFa | 0.645 | 0.577 | 0.584 | 0.606 | 0.624 | 0.629 | 0.624 | 0.623 | 0.59
1 µM, coculture fibroblast: HUF | 0.553 | 0.488 | 0.497 | 0.424 | 0.394 | 0.371 | 0.352 | 0.338 | 0.327
1 µM, coculture fibroblast: Hs27A | 0.661 | 0.6096 | 0.658 | 0.698 | 0.704 | 0.691 | 0.687 | 0.684 | 0.63
1 µM, coculture fibroblast: Hs343T | 0.655 | 0.55 | 0.536 | 0.533 | 0.492 | 0.475 | 0.454 | 0.435 | 0.433
1 µM, coculture fibroblast: WS1 | 0.436 | 0.388 | 0.41 | 0.356 | 0.331 | 0.315 | 0.301 | 0.3 | 0.295
10 µM, coculture fibroblast: C12385 | 0.306 | 0.346 | 0.4084 | 0.324 | 0.284 | 0.245 | 0.208 | 0.178 | 0.146
10 µM, coculture fibroblast: H6013 | 0.704 | 0.901 | 0.868 | 0.782 | 0.704 | 0.642 | 0.563 | 0.485 | 0.379
10 µM, coculture fibroblast: H6019 | 0.399 | 0.465 | 0.476 | 0.353 | 0.3 | 0.278 | 0.251 | 0.232 | 0.207
10 µM, coculture fibroblast: H6076 | 0.61 | 0.634 | 0.763 | 0.728 | 0.719 | 0.69 | 0.62 | 0.5573 | 0.487
10 µM, coculture fibroblast: H6231 | 0.715 | 0.778 | 0.804 | 0.833 | 0.725 | 0.663 | 0.553 | 0.471 | 0.413
10 µM, coculture fibroblast: HADF | 0.613 | 0.619 | 0.591 | 0.59215 | 0.5567 | 0.5161 | 0.454 | 0.401 | 0.319
10 µM, coculture fibroblast: HCFa | 0.629 | 0.806 | 0.786 | 0.715 | 0.745 | 0.721 | 0.687 | 0.726 | 0.612
10 µM, coculture fibroblast: HCPF | 0.59 | 0.578 | 0.665 | 0.774 | 0.754 | 0.744 | 0.688 | 0.636 | 0.552
10 µM, coculture fibroblast: HHSteC | 0.762 | 0.927 | 0.855 | 0.775 | 0.674 | 0.61 | 0.547 | 0.481 | 0.377
10 µM, coculture fibroblast: HMF | 0.568 | 0.604 | 0.732 | 0.747 | 0.728 | 0.681 | 0.631 | 0.592 | 0.542
10 µM, coculture fibroblast: HPFa | 0.7062 | 0.79 | 0.623 | 0.605 | 0.584 | 0.572 | 0.552 | 0.514 | 0.428
10 µM, coculture fibroblast: HUF | 0.391 | 0.446 | 0.437 | 0.339 | 0.322 | 0.3 | 0.266 | 0.256 | 0.226
10 µM, coculture fibroblast: Hs27A | 0.622 | 0.789 | 0.796 | 0.821 | 0.75 | 0.707 | 0.63 | 0.582 | 0.477
10 µM, coculture fibroblast: Hs343T | 0.576 | 0.6388 | 0.72 | 0.726 | 0.673 | 0.637 | 0.565 | 0.492 | 0.414
10 µM, coculture fibroblast: WS1 | 0.334 | 0.328 | 0.425 | 0.355 | 0.3 | 0.261 | 0.219 | 0.188 | 0.155
